Measurements published in the supplement of paper PMC10338343.
± gives the standard deviation. The entries are a selection whose mix differs from that of the whole data set. Many entries were measured with a wide error. The list shows a part of the results.

Columns and labels:
[1] = tested on: MIWI (PIWIL1) piRISC loaded with L1MC piRNA (30 nt); experiment: pre-steady-state target cleavage rate (min^-1); higher = faster piRNA-guided slicing of the target; conditions: guide: L1MC piRNA 5'p-UAACUAAAUACUAUGCAAGCUGUAGGUCCU
In short: (§1)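 Using HEPES–potassium acetate buffer at 33 °C, 1 nM active affinity-purified piRISC with a single synthetic guide was mixed with 0.1 nM transcribed, DNA-blocked target RNA library for 0–8 or 0–960 min, with or without 500 nM GTSF1 partner protein. Uncleaved targets were sequenced and normalised to depth and to weakly complementary targets, and three trials were pooled with k3 capped at 0.0001 min^-1. A burst-and-steady-state fit gave the pre-steady-state cleavage rate.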

[2] = tested on: EfPiwi piRISC loaded with L1MC piRNA (26 nt); experiment: pre-steady-state target cleavage rate (min^-1); guide: L1MC piRNA 5'p-UAACUAAAUACUAUGCAAGCUGUAGG; MIWI and MILI are mouse PIWI proteins and EfPiwi is from a freshwater sponge; tags in brackets are library labels; higher = faster piRNA-guided slicing of the target
In short: as §1

[3] = auxiliary factor: none (no GTSF1)
[4] = auxiliary factor: 500 nM Ephydatia muelleri Gtsf1
[5] = auxiliary factor: 500 nM mouse GTSF1
[6] = auxiliary factor: none (no Gtsf1)

| Sequence | pre-steady-state target cleavage rate [1, 3] | pre-steady-state target cleavage rate [2, 4] | pre-steady-state target cleavage rate [1, 5] | pre-steady-state target cleavage rate [2, 6] |
| --- | --- | --- | --- | --- |
| UCCUCCUACAGCUUGCAUAGUAUUUUCUAA | 0.00316 ± 0.0036 | 0.00565 ± 0.0036 |  |  |
| UCCUCCUACAGCUUGCGUAGUAUUUAGUUA | 0.0225 ± 0.0064 | 0.031 ± 0.011 | 1.55 ± 0.078 |  |
| UCCUGGAUCAGCUUGCAUAGUAAUAAGUUA | 0.00256 ± 0.0037 | 0.00234 ± 0.0018 |  |  |
| UCCUGGAACAGCAACCAUAGUAUUUUCAAA | 0.000802 ± 0.0057 | 0.000168 ± 0.018 |  |  |
| UCCUGGAUGUCGUUGCAUUGUAUUUAGUUA | 0.000693 ± 0.0097 | 0.00116 ± 0.0063 | 0.00118 ± 0.007 |  |
| UCCUGGAUGUCCUUGCAUACUAUAUAGUUA | 0.000833 ± 0.0076 | 0.000254 ± 0.014 |  |  |
| UCCUGGAACAGCUUGCAUAGUUAUUAGAAA | 0.00176 ± 0.0046 | 0.00355 ± 0.0039 |  |  |
| UCCUGGAUGUCGUUGCAUAGUAUUUAUUUA | 0.00195 ± 0.0043 | 0.000481 ± 0.0079 |  |  |
| UCCUCCUACAGCUUGCUUAGUAUAUAGUUA | 0.0104 ± 0.0032 | 0.0127 ± 0.0069 | 0.617 ± 0.034 |  |
| UCCUGGAUGUGCUACCAUAGUAUUUAGUUA | 0.000899 ± 0.0063 | 0.00116 ± 0.0036 |  |  |
| UCCUGGAUGAGCUUGCAUAGUAUUUAGUGA | 0.0519 ± 0.0094 | 0.00681 ± 0.0032 | 0.703 ± 0.047 |  |
| UCCUGCAACAGCUUGCAUAGUAUUUAGUUA | 0.0696 ± 0.017 | 0.0741 ± 0.018 | 1.57 ± 0.12 |  |
| UCCUGGAUGUCGUUGCAUACGUAUUUAGUUA | 0.000736 ± 0.012 | 0.000258 ± 0.02 | 0.000179 ± 0.051 |  |
| UCCUGGAUGUCGAAGCAAAGUAUAUAGUUA | 0.000194 ± 0.019 |  |  | 0.000131 ± 0.07 |
| UCCUGGAUGUCGAACGUAUGAUUUUAGUUA | 0.000106 ± 0.045 |  |  | 0.000122 ± 0.04 |
| UCCUGGAUGUCGUUGCAUAGUCUUUAGUUA | 0.00263 ± 0.0034 | 0.00182 ± 0.003 |  |  |
| UCCUGGAUGUCGAUGCAUACUAAUUAGUUA | 0.000618 ± 0.0091 | 0.000973 ± 0.0067 |  |  |
| UCCUGGAUGAGCUUGCGAUAGUAUUUAGUUA | 0.000333 ± 0.0082 |  | 0.00269 ± 0.0038 | 0.0011 ± 0.0088 |
| UCCUGGUACAGGUUGCAUAGUAUUUACAAA | 0.00182 ± 0.0033 | 0.00293 ± 0.0033 |  |  |

Quoted from the listing:
In pre-steady-state target cleavage rate [2, 4], UCCUGGUACAGGUUGCAUAGUAUUUACAAA has the entry 0.00293 ± 0.0033
In pre-steady-state target cleavage rate [2, 4], UCCUGGAACAGCUUGCAUAGUUAUUAGAAA has the entry 0.00355 ± 0.0039
